Some results come without the dose or concentration used.
Test system: cisplatin resistant mouse leukemia cells L1210 (L1210/CDDP)
Test: Experiment 2 growth inhibition of cisplatin resistant L1210/CDDP cells
Type: cell-based
Settings: from values on L1210/CDDP and L1210 cells by printed equation

Structure (SMILES)	a (drug sensitivity)
N.N.O=C([O-])C1(C(=O)[O-])CCC1.[Pt+2] [CBDCA, cisdiamino-1,1-cyclobutanedicarboxylato platinum (II)]	7.3
N.N.[Cl][Pt][Cl] [CDDP, cis-dichlorodiamine platinum (II)]	6.3
